According to PubChem BioAssay AID248 (DTP/NCI, 2004):
The list is a part of this screen's results and no random one: it is rich in T/C values a quarter to a half above the control, in often repeated tests (any T/C) and in doses without a T/C. Other doses and runs of a compound stand elsewhere. T/C gives the treated animals as a percentage of the vehicle group. Some doses have a count of surviving animals in place of a T/C: the source holds a T/C of zero for them, seemingly a mark for toxic or unscored doses. Some survivor counts are full or nearly so, which does not show that the dose was tolerated: the source hardly ever lists a survival T/C far under the control, and the zero likely stands for such cases as well. Survivors were counted at the toxicity check, usually on the fifth day, unless a day is given; later deaths do not show. Schedule codes are those of the source, taken here to give the interval after Q, in days (D) or hours (H), and the number of doses after X. Some schedules carry Z or #; the key to these is not given. Where survival is the endpoint, the PubChem record calls one and a half times the control and up active, and a quarter to a half above the control has no call in these data; cut-offs in other NCI protocols can differ. Some entries hold several experiments; the results are listed from low to high. Counts like (3×) say how often a value occurs here. Some T/C values are followed by the survivors on the day toxicity was checked, most often the fifth; where none is given, no animal had died by that day.

Tested on: L1210 leukemia ip in BDF1 mice, survival T/C
Test: NCI In Vivo Anticancer Drug Screen. Data for tumor model L1210 Leukemia (intraperitoneal) in B6D2F1 (BDF1) mice
Conditions: T/C endpoint: mean survival time, higher T/C = longer survival
[1] = dose: 90.0 mg/kg/injection, schedule: Q## X Z (ip), vehicle: saline

**Q.** For O=P1(N(CCCl)CCCl)NCCCO1 (centres undefined), which survivor count (dose: 75.0 mg/kg/injection, schedule: Q01DX Z (ip), vehicle: methylcellulose (MC)) is on record?
**A.** 6 of 6

**Q.** What about the survivor count (dose: 78.8 mg/kg/injection, schedule: Q01DX010 (ip), vehicle: saline) of the same compound?
**A.** 10 of 10

**Q.** And the T/C (dose: 80.0 mg/kg/injection, schedule: Q01DX001 (ip), vehicle: saline)?
**A.** 139 % of control

**Q.** And the T/C (dose: 86.0 mg/kg/injection, schedule: Q01DX001 (ip), vehicle: saline)?
**A.** 147 % of control

**Q.** And the T/C (dose: 89.0 mg/kg/injection, schedule: Q01DX001 (ip), vehicle: saline, evaluated on day 5)?
**A.** 142 % of control

**Q.** What about the T/C (dose: 89.0 mg/kg/injection, schedule: Q01DX001 (ip), vehicle: saline, evaluated on day 45) of the same compound?
**A.** 142 % of control

**Q.** And the T/C (dose: 90.0 mg/kg/injection, schedule: Q01DX010 (ip), vehicle: saline)?
**A.** 97, 97 [5 of 6 alive], 113, 114 % of control

**Q.** What about the T/C (dose: 90.0 mg/kg/injection, schedule: Q01DX Z (ip), vehicle: saline) of the same compound?
**A.** 130 and 143 % of control

**Q.** And the T/C (dose: 90.0 mg/kg/injection, schedule: Q02DX010 (ip), vehicle: saline)?
**A.** 132 % of control

**Q.** And the T/C [1]?
**A.** 133 % of control

**Q.** What about the survivor count [1] of the same compound?
**A.** 9 of 10

**Q.** And the T/C (dose: 100.0 mg/kg/injection, schedule: Q01DX001 (ip), vehicle: saline, evaluated on day 5)?
**A.** 139 and 147 % of control

**Q.** What about the T/C (dose: 100.0 mg/kg/injection, schedule: Q01DX001 (ip), vehicle: saline, evaluated on day 7) of the same compound?
**A.** 161 % of control

**Q.** And the T/C (dose: 100.0 mg/kg/injection, schedule: Q01DX001 (ip), vehicle: saline, evaluated on day 30)?
**A.** 126, 136 (2×), 137, 138, 143, 147, 153, 155, 159, 164, 234, 247 % of control

**Q.** What about the T/C (dose: 100.0 mg/kg/injection, schedule: Q01DX001 (ip), vehicle: saline, evaluated on day 45) of the same compound?
**A.** 136 and 148 % of control

**Q.** And the T/C (dose: 100.0 mg/kg/injection, schedule: Q01DX001 (ip), vehicle: saline, evaluated on day 60)?
**A.** 88, 147, 148, 169, 223 % of control

**Q.** What about the T/C (dose: 100.0 mg/kg/injection, schedule: Q01DX001 (ip), vehicle: saline, evaluated on day 63) of the same compound?
**A.** 165 % of control

**Q.** What about the T/C (dose: 100.0 mg/kg/injection, schedule: Q01DX001 (ip), vehicle: saline, evaluated on day 64) of the same compound?
**A.** 161 % of control

**Q.** And the T/C (dose: 100.0 mg/kg/injection, schedule: Q01DX001 (ip), vehicle: saline, run until all animals had died)?
**A.** 136 [3 of 4 alive], 141, 145, 167, 191 % of control

**Q.** What about the T/C (dose: 100.0 mg/kg/injection, schedule: Q01DX Z (ip), vehicle: saline) of the same compound?
**A.** 89, 91, 116, 120, 132 % of control

**Q.** What about the T/C (dose: 100.0 mg/kg/injection, schedule: Q02DX010 (ip), vehicle: carboxymethylcellulose (CMC)) of the same compound?
**A.** 115, 134, 150, 166, 168 % of control

**Q.** And the T/C (dose: 100.0 mg/kg/injection, schedule: Q02DX010 (ip), vehicle: other)?
**A.** 130 % of control

**Q.** What about the T/C (dose: 100.0 mg/kg/injection, schedule: Q04DX002 (ip), vehicle: saline) of the same compound?
**A.** 140 % of control

**Q.** And the survivor count (dose: 100.0 mg/kg/injection, schedule: Q#A X Z (ip), vehicle: saline)?
**A.** 6 of 6

**Q.** What about the T/C (dose: 101.0 mg/kg/injection, schedule: Q01DX001 (ip), vehicle: saline) of the same compound?
**A.** 148 % of control

**Q.** And the T/C (dose: 104.0 mg/kg/injection, schedule: Q01DX001 (ip), vehicle: saline)?
**A.** 126 % of control

**Q.** What about the T/C (dose: 108.0 mg/kg/injection, schedule: Q01DX001 (ip), vehicle: saline) of the same compound?
**A.** 148 % of control

**Q.** And the T/C (dose: 117.0 mg/kg/injection, schedule: Q04DX002 (ip), vehicle: saline)?
**A.** 170, 174, 185, 192 % of control

**Q.** What about the T/C (dose: 125.0 mg/kg/injection, schedule: Q01DX001 (ip), vehicle: saline, evaluated on day 30) of the same compound?
**A.** 133 and 208 % of control

**Q.** And the T/C (dose: 125.0 mg/kg/injection, schedule: Q01DX001 (ip), vehicle: saline, evaluated on day 35)?
**A.** 178 % of control

**Q.** What about the T/C (dose: 125.0 mg/kg/injection, schedule: Q01DX001 (ip), vehicle: saline, evaluated on day 38) of the same compound?
**A.** 130 % of control [5 of 6 alive]

**Q.** What about the T/C (dose: 133.0 mg/kg/injection, schedule: Q01DX001 (ip), vehicle: saline, evaluated on day 5) of the same compound?
**A.** 222 % of control

**Q.** What about the T/C (dose: 133.0 mg/kg/injection, schedule: Q01DX001 (ip), vehicle: saline, evaluated on day 45) of the same compound?
**A.** 165, 176, 222 % of control

**Q.** And the T/C (dose: 133.0 mg/kg/injection, schedule: Q01DX001 (ip), vehicle: saline, evaluated on day 60)?
**A.** 215 % of control

**Q.** And the survivor count (dose: 135.0 mg/kg/injection, schedule: Q## X006 (ip), vehicle: saline)?
**A.** 10 of 10

**Q.** What about the T/C (dose: 150.0 mg/kg/injection, schedule: Q01DX001 (ip), vehicle: saline, evaluated on day 5) of the same compound?
**A.** 158 % of control

**Q.** What about the T/C (dose: 150.0 mg/kg/injection, schedule: Q01DX001 (ip), vehicle: saline, evaluated on day 20) of the same compound?
**A.** 169 % of control

**Q.** And the T/C (dose: 150.0 mg/kg/injection, schedule: Q01DX001 (ip), vehicle: saline, evaluated on day 30)?
**A.** 99, 152, 157, 176, 192, 205, 221, 225, 232, 233, 248, 263, 280, 312 % of control

**Q.** What about the T/C (dose: 150.0 mg/kg/injection, schedule: Q01DX001 (ip), vehicle: saline, evaluated on day 45) of the same compound?
**A.** 158 and 167 % of control

**Q.** And the T/C (dose: 150.0 mg/kg/injection, schedule: Q01DX001 (ip), vehicle: saline, evaluated on day 60)?
**A.** 146, 172, 256 % of control

**Q.** And the T/C (dose: 150.0 mg/kg/injection, schedule: Q01DX001 (ip), vehicle: saline, run until all animals had died)?
**A.** 157 and 201 % of control

**Q.** And the T/C (dose: 150.0 mg/kg/injection, schedule: Q01DX001 (ip), vehicle: water, evaluated on day 4)?
**A.** 179 and 340 % of control

**Q.** And the T/C (dose: 150.0 mg/kg/injection, schedule: Q01DX001 (ip), vehicle: water, evaluated on day 5)?
**A.** 164, 256, 286 % of control

**Q.** And the T/C (dose: 150.0 mg/kg/injection, schedule: Q01DX001 (ip), vehicle: water, evaluated on day 30)?
**A.** 162 and 340 % of control
